In the supplement of paper PMC8728848:
The list shows a part of the results.

Tests used:
Assay in all cases: glycan array binding signal (z-score within array); higher = stronger binding
Conditions in all cases: glycan notation: IUPAC condensed, linker removed
[1] = target: Neu5Ac(a2-3)Gal(b1-4)GlcNAc(b1-2)Man(a1-3)[Neu5Ac(a2-6)Gal(b1-4)GlcNAc(b1-2)Man(a1-6)]Man(b1-4)GlcNAc(b1-4)GlcNAc
How it was run: (§1)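 Columns mapping to the same glycan were averaged after glycan names were converted to IUPAC-condensed notation. The data come from 3228 arrays in the Consortium for Functional Glycomics database, limited to those with an available protein sequence. Binding is reported as a within-array Z-score averaged across arrays of one protein sequence and across linkers.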

[2] = target: Neu5Ac(a2-3)Gal(b1-4)GlcNAc(b1-2)[Neu5Ac(a2-3)Gal(b1-4)GlcNAc(b1-4)]Man(a1-3)[GlcNAc(b1-4)][Neu5Ac(a2-3)Gal(b1-4)GlcNAc(b1-2)[Neu5Ac(a2-3)Gal(b1-4)GlcNAc(b1-6)]Man(a1-6)]Man(b1-4)GlcNAc(b1-4)GlcNAc
How it was run: as §1

[3] = target: Neu5Ac(a2-3)Gal(b1-4)GlcNAc(b1-2)[Neu5Ac(a2-3)Gal(b1-4)GlcNAc(b1-4)]Man(a1-3)[GlcNAc(b1-4)][Neu5Ac(a2-3)Gal(b1-4)GlcNAc(b1-4)Man(a1-6)]Man(b1-4)GlcNAc(b1-4)GlcNAc
How it was run: as §1

[4] = target: Neu5Ac(a2-3)Gal(b1-4)GlcNAc(b1-2)[Neu5Ac(a2-3)Gal(b1-4)GlcNAc(b1-6)]Man(a1-6)[Neu5Ac(a2-3)Gal(b1-4)GlcNAc(b1-2)Man(a1-3)][GlcNAc(b1-4)]Man(b1-4)GlcNAc(b1-4)GlcNAc
How it was run: as §1

[5] = target: Neu5Ac(a2-3)Gal(b1-4)GlcNAc(b1-3)Gal
How it was run: as §1

[6] = target: Neu5Ac(a2-3)Gal(b1-4)GlcNAc(b1-3)Gal(b1-3)GlcNAc
How it was run: as §1

[7] = target: Neu5Ac(a2-3)Gal(b1-4)GlcNAc(b1-3)Gal(b1-4)GlcNAc
How it was run: as §1

[8] = target: Neu5Ac(a2-3)Gal(b1-4)GlcNAc(b1-3)Gal(b1-4)GlcNAc(b1-2)Man(a1-3)[Neu5Ac(a2-3)Gal(b1-4)GlcNAc(b1-3)Gal(b1-4)GlcNAc(b1-2)Man(a1-6)]Man(b1-4)GlcNAc(b1-4)GlcNAc
How it was run: as §1

[9] = target: Neu5Ac(a2-3)Gal(b1-4)GlcNAc(b1-3)Gal(b1-4)GlcNAc(b1-3)Gal(b1-4)GlcNAc
How it was run: as §1

[10] = target: Neu5Ac(a2-3)Gal(b1-4)GlcNAc(b1-3)Gal(b1-4)GlcNAc(b1-3)Gal(b1-4)GlcNAc(b1-2)Man(a1-3)[Neu5Ac(a2-3)Gal(b1-4)GlcNAc(b1-3)Gal(b1-4)GlcNAc(b1-3)Gal(b1-4)GlcNAc(b1-2)Man(a1-6)]GalNAc
How it was run: as §1

[11] = target: Neu5Ac(a2-3)Gal(b1-4)GlcNAc(b1-3)Gal(b1-4)GlcNAc(b1-3)GalNAc
How it was run: as §1

[12] = target: Neu5Ac(a2-3)Gal(b1-4)GlcNAc(b1-3)Gal(b1-4)GlcNAc(b1-3)[Neu5Ac(a2-3)Gal(b1-4)GlcNAc(b1-3)Gal(b1-4)GlcNAc(b1-6)]GalNAc
How it was run: as §1

[13] = target: Neu5Ac(a2-3)Gal(b1-4)GlcNAc(b1-3)Gal(b1-4)GlcNAc(b1-6)[Gal(b1-3)]GalNAc
How it was run: as §1

[14] = target: Neu5Ac(a2-3)Gal(b1-4)GlcNAc(b1-3)Gal(b1-4)[Fuc(a1-3)]GlcNAc
How it was run: as §1

[15] = target: Neu5Ac(a2-3)Gal(b1-4)GlcNAc(b1-3)GalNAc
How it was run: as §1

[16] = target: Neu5Ac(a2-3)Gal(b1-4)GlcNAc(b1-3)[Neu5Ac(a2-3)Gal(b1-4)GlcNAc(b1-6)]GalNAc
How it was run: as §1

[17] = target: Neu5Ac(a2-3)Gal(b1-4)GlcNAc(b1-6)GalNAc
How it was run: as §1

[18] = target: Neu5Ac(a2-3)Gal(b1-4)GlcNAc(b1-6)[Gal(b1-3)]GalNAc
How it was run: as §1

[19] = target: Neu5Ac(a2-3)Gal(b1-4)GlcNAc(b1-6)[Neu5Ac(a2-3)Gal(b1-3)]GalNAc
How it was run: as §1

[20] = target: Neu5Ac(a2-3)Gal(b1-4)GlcNAc6S
How it was run: as §1

[21] = target: Neu5Ac(a2-3)Gal(b1-4)[Fuc(a1-3)]GlcNAc
How it was run: as §1

[22] = target: Neu5Ac(a2-3)Gal(b1-4)[Fuc(a1-3)]GlcNAc(b1-2)Man
How it was run: as §1

[23] = target: Neu5Ac(a2-3)Gal(b1-4)[Fuc(a1-3)]GlcNAc(b1-3)Gal
How it was run: as §1

[24] = target: Neu5Ac(a2-3)Gal(b1-4)[Fuc(a1-3)]GlcNAc(b1-3)Gal(b1-4)GlcNAc
How it was run: as §1

[25] = target: Neu5Ac(a2-3)Gal(b1-4)[Fuc(a1-3)]GlcNAc(b1-3)Gal(b1-4)[Fuc(a1-3)]GlcNAc(b1-3)Gal(b1-4)[Fuc(a1-3)]GlcNAc
How it was run: as §1

[26] = target: Neu5Ac(a2-3)Gal(b1-4)[Fuc(a1-3)]GlcNAc(b1-3)GalNAc
How it was run: as §1

[27] = target: Neu5Ac(a2-3)Gal(b1-4)[Fuc(a1-3)]GlcNAc(b1-6)[Gal(b1-3)]GalNAc
How it was run: as §1

[28] = target: Neu5Ac(a2-3)Gal(b1-4)[Fuc(a1-3)]GlcNAc(b1-6)[Neu5Ac(a2-3)Gal(b1-3)]GalNAc
How it was run: as §1

[29] = target: Neu5Ac(a2-3)Gal(b1-4)[Fuc(a1-3)]GlcNAc6S
How it was run: as §1

[30] = target: Neu5Ac(a2-3)Gal6S(b1-4)GlcNAc
How it was run: as §1

[31] = target: Neu5Ac(a2-3)Gal6S(b1-4)[Fuc(a1-3)]GlcNAc
How it was run: as §1

Neu5Ac(a2-3)GalNAc = target: Neu5Ac(a2-3)GalNAc
How it was run: as §1

[32] = target: Neu5Ac(a2-3)GalNAc(b1-4)GlcNAc
How it was run: as §1

[33] = target: Neu5Ac(a2-3)[GalNAc(b1-4)]Gal(b1-4)Glc
How it was run: as §1

[34] = target: Neu5Ac(a2-3)[GalNAc(b1-4)]Gal(b1-4)GlcNAc
How it was run: as §1

[35] = target: Neu5Ac(a2-3)[GalNAc(b1-4)]Gal(b1-4)GlcNAc(b1-3)GalNAc
How it was run: as §1

[36] = target: Neu5Ac(a2-3)[Neu5Ac(a2-6)]GalNAc
How it was run: as §1

Neu5Ac(a2-6)Gal = target: Neu5Ac(a2-6)Gal
How it was run: as §1

[37] = target: Neu5Ac(a2-6)Gal(b1-3)GlcNAc(b1-3)[Gal(b1-4)GlcNAc(b1-6)]Gal(b1-4)Glc
How it was run: as §1

Neu5Ac(a2-6)Gal(b1-4)Glc = target: Neu5Ac(a2-6)Gal(b1-4)Glc
How it was run: as §1

[38] = target: Neu5Ac(a2-6)Gal(b1-4)GlcNAc
How it was run: as §1

[39] = target: Neu5Ac(a2-6)Gal(b1-4)GlcNAc(b1-2)Man
How it was run: as §1

[40] = target: Neu5Ac(a2-6)Gal(b1-4)GlcNAc(b1-2)Man(a1-3)Man(b1-4)GlcNAc(b1-4)GlcNAc
How it was run: as §1

[41] = target: Neu5Ac(a2-6)Gal(b1-4)GlcNAc(b1-2)Man(a1-3)[Gal(b1-4)GlcNAc(b1-2)Man(a1-6)]Man(b1-4)GlcNAc(b1-4)GlcNAc
How it was run: as §1

[42] = target: Neu5Ac(a2-6)Gal(b1-4)GlcNAc(b1-2)Man(a1-3)[GlcNAc(b1-2)Man(a1-6)]Man(b1-4)GlcNAc(b1-4)GlcNAc
How it was run: as §1

B1: CBP21 (Serratia marcescens), O83009 (protein)
chain: MNKTSRTLLSLGLLSAAMFGVSQQANAHGYVESPASRAYQCKLQLNTQCGSVQYEPQSVEGLKGFPQAGPADGHIASADKSTFFELDQQTPTRWNKLNLKTGPNSFTWKLTARHSTTSWRYFITKPNWDASQPLTRASFDLTPFCQFNDGGAIPAAQVTHQCNIPADRSGSHVILAVWDIADTANAFYQAIDVNLSK
How did the “glycan array binding signal (z-score)” value [1] turn out when B1 was run?
Its value is -1.35.

And the “glycan array binding signal (z-score)” value [2]?
Its value is -0.28.

What about the “glycan array binding signal (z-score)” value [3] of the same binder?
Its value is 0.246.

And the “glycan array binding signal (z-score)” value [4]?
Its value is -0.87.

And the “glycan array binding signal (z-score)” value [5]?
Its value is -0.019.

What about the “glycan array binding signal (z-score)” value [6] of the same binder?
Its value is -1.13.

And the “glycan array binding signal (z-score)” value [7]?
The value was 0.432.

And the “glycan array binding signal (z-score)” value [8]?
Its value is -0.793.

What about the “glycan array binding signal (z-score)” value [9] of the same binder?
The value was 1.59.

What about the “glycan array binding signal (z-score)” value [10] of the same binder?
Its value is 0.18.

And the “glycan array binding signal (z-score)” value [11]?
The value was 0.287.

What about the “glycan array binding signal (z-score)” value [12] of the same binder?
The value was 0.987.

And the “glycan array binding signal (z-score)” value [13]?
The value was -0.397.

What about the “glycan array binding signal (z-score)” value [14] of the same binder?
Its value is 0.007.

And the “glycan array binding signal (z-score)” value [15]?
Its value is 0.048.

What about the “glycan array binding signal (z-score)” value [16] of the same binder?
Its value is -0.911.

What about the “glycan array binding signal (z-score)” value [17] of the same binder?
Its value is -1.32.

And the “glycan array binding signal (z-score)” value [18]?
The value was 0.05.

What about the “glycan array binding signal (z-score)” value [19] of the same binder?
The value was -2.09.

And the “glycan array binding signal (z-score)” value [20]?
The value was 0.175.

And the “glycan array binding signal (z-score)” value [21]?
The value was -1.19.

What about the “glycan array binding signal (z-score)” value [22] of the same binder?
The value was -1.42.

And the “glycan array binding signal (z-score)” value [23]?
The value was -1.01.

And the “glycan array binding signal (z-score)” value [24]?
Its value is 1.49.

And the “glycan array binding signal (z-score)” value [25]?
The value was -1.37.

What about the “glycan array binding signal (z-score)” value [26] of the same binder?
The value was 0.933.

What about the “glycan array binding signal (z-score)” value [27] of the same binder?
The value was -0.477.

What about the “glycan array binding signal (z-score)” value [28] of the same binder?
The value was -0.314.

What about the “glycan array binding signal (z-score)” value [29] of the same binder?
Its value is -0.462.

And the “glycan array binding signal (z-score)” value [30]?
The value was -0.887.

And the “glycan array binding signal (z-score)” value [31]?
Its value is -0.454.

What about the “glycan array binding signal (z-score)” value (Neu5Ac(a2-3)GalNAc) of the same binder?
The value was -0.582.

And the “glycan array binding signal (z-score)” value [32]?
Its value is 0.542.

And the “glycan array binding signal (z-score)” value [33]?
The value was -1.49.

What about the “glycan array binding signal (z-score)” value [34] of the same binder?
Its value is 0.682.

What about the “glycan array binding signal (z-score)” value [35] of the same binder?
Its value is -0.031.

What about the “glycan array binding signal (z-score)” value [36] of the same binder?
Its value is 0.644.

And the “glycan array binding signal (z-score)” value (Neu5Ac(a2-6)Gal)?
The value was 0.109.

What about the “glycan array binding signal (z-score)” value [37] of the same binder?
The value was -0.178.

And the “glycan array binding signal (z-score)” value (Neu5Ac(a2-6)Gal(b1-4)Glc)?
The value was -0.329.

And the “glycan array binding signal (z-score)” value [38]?
The value was -0.309.

What about the “glycan array binding signal (z-score)” value [39] of the same binder?
Its value is -0.09.

What about the “glycan array binding signal (z-score)” value [40] of the same binder?
Its value is -0.832.

And the “glycan array binding signal (z-score)” value [41]?
Its value is -0.251.

And the “glycan array binding signal (z-score)” value [42]?
The value was -0.307.
